In PMC7069958 one finds binding data, which are given here for two substances.

Amino acid sequences for entries named in this document (tags omitted).
UniProt P83949: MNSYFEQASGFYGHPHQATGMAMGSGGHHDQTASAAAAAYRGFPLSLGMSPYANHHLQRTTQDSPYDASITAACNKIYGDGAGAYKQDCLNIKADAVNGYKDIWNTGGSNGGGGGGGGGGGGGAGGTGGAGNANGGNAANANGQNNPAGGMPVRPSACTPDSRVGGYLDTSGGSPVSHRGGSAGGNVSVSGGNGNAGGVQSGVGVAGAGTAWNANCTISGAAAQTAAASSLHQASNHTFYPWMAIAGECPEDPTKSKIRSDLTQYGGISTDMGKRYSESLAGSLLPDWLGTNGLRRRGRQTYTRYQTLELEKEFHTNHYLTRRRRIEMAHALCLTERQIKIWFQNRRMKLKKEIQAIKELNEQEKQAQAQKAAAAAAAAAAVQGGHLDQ
UniProt O46036: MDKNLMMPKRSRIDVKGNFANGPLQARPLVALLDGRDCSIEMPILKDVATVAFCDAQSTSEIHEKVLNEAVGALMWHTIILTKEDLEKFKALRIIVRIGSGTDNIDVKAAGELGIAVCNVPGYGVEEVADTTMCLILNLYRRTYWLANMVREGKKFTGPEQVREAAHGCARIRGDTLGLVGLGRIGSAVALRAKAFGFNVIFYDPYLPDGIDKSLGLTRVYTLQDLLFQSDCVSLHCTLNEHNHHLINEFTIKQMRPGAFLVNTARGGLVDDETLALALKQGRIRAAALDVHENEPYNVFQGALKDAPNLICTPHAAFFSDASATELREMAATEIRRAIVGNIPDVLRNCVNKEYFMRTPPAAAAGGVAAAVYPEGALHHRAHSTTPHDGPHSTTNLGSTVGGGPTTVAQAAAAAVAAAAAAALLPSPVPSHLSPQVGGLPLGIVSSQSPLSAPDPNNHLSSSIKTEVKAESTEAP
UniProt Q9VWC6: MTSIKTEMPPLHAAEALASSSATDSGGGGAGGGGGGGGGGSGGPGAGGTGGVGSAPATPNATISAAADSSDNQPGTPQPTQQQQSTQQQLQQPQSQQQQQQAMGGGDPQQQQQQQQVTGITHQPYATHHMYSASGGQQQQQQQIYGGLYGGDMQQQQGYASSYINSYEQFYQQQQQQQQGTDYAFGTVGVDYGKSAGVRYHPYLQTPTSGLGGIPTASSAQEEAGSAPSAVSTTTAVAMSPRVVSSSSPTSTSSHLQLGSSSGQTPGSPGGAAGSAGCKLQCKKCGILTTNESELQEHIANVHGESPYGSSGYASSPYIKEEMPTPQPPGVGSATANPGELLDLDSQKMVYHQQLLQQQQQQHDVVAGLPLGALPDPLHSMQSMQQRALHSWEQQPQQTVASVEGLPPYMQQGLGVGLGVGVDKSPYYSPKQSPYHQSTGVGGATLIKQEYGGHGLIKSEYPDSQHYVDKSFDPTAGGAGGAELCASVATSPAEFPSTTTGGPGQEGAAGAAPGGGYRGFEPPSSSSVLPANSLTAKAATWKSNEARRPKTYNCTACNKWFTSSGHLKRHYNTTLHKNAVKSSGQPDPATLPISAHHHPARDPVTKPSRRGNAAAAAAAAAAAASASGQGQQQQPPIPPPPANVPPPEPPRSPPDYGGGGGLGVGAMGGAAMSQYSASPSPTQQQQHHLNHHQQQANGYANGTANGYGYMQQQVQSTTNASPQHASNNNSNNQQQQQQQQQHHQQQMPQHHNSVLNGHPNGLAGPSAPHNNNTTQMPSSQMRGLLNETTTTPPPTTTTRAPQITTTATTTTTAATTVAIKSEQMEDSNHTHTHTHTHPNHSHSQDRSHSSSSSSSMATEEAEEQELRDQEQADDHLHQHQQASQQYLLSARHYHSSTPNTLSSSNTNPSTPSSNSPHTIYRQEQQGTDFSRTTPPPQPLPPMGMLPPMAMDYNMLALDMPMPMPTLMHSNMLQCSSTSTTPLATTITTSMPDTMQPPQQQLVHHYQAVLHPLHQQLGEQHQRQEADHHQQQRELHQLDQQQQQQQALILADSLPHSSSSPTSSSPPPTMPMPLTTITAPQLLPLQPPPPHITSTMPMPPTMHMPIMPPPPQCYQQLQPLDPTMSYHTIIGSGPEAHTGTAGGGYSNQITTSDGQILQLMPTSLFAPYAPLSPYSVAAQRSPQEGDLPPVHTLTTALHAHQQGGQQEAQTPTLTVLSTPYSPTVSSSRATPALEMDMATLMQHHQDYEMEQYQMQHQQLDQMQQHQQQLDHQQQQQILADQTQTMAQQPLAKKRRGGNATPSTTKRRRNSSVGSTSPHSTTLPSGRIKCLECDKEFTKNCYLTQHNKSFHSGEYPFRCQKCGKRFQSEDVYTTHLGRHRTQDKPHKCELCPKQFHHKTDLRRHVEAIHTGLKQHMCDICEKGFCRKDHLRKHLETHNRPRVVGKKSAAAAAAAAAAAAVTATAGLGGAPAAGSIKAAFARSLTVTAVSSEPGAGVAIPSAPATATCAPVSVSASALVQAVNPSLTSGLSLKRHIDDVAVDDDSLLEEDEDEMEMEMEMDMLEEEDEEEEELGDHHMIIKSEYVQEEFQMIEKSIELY

No constants are given. Whether binding was seen depends on the method and setting. In cells and extracts the contact can be indirect. Some results given as binding are weak or reduced against the parent protein; the word gives no strength.

This assay has as its target GFP-Ubx expressed from the endogenous Ubx locus (Drosophila (endogenous in embryos)) (UniProt P83949). The assay can be described thus: co-IP; embryos (w1118 control or endogenous GFP-Ubx) fixed with 3.2% formaldehyde; nuclear lysate sonicated, Benzonase treated, in NP40 buffer (20 mM Tris pH 7.5, 150 mM NaCl, 2 mM EDTA, 1% NP40), overnight with GFP-Trap beads; immunoblot; endogenous levels of all proteins. A general note: Immunoblotting shows a protein as a band on a membrane.

“C-terminal binding protein (CtBP), endogenous (from UniProt O46036 1-476)”: the binding result is given as “binds”.

As to “Zelda (Zld), endogenous (from UniProt Q9VWC6 1-1596)”, the binding entry was “binds”.
